# Screening data, single-dose tests

The values are deposited in ChEMBL (CHEMBL3988442, “University of Dundee, Small-Polar-MMV Screening Library” (2021)).

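Growth of Mycobacterium tuberculosis over 4 days (cholesterol / DPPC medium with tyloxapol); the read-out is not stated. Concentration: 500 µM. The record gives no direction; compounds that gave an IC50 in retests scored well above the rest, so higher reads as more growth inhibition. About 18,000 compounds were tested under these conditions; 5% (about 900) showed 50% or more at least once.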

Each number is a percent effect as filed. The controls that fix the scale are not given in the record; negative values are as filed. The compounds are a random part of those screened.

| Compound | percent effect |
|---|---|
| `Cn1cc(C(N)=O)c(C(F)F)n1` | -4.397% |
| `Cc1cc(C(=O)N2CCN(C)C(=O)C2(C)C)c(C)o1` | -5.642% |
| `CC(C)(CCS(C)(=O)=O)NC1CCCCC1` | -2.261% |
| `CCC[C@H]1CN(S(=O)(=O)c2cnn(CCC)c2)C[C@@H]1N` | 12.88% |
| `Cc1c[nH]c(CN(C)Cc2ccncc2Cl)n1` | -3.534% |
| `CN1CCCN(C(=O)c2cc3ccccc3[nH]2)CC1` | 4.203% |
| `C=C(C)CN1CCC(NC(=O)N2CCSCC2)CC1` | 60.92% |
| `CC(C)(O)C1CCCN1C(=O)Nc1cccnn1` (centres undefined) | -12.47% |
| `O=S(=O)(NCC[C@H]1CCCN1)c1cn2c(n1)CCCC2` | -22.14% |
| `O=C(Nc1cccc2c1OCCO2)NC1CC1` | 8.547% |
| `COc1cccc(CNC(=O)Nc2nccs2)c1O` | 20.26% |
| `CC(C)c1nc(CN2CCCC3(CCNC3)C2)co1` (centres undefined) | 17.92% |
| `COc1ccccc1C(N)c1ccccn1` (centres undefined) | 25.32% |
| `COCc1noc([C@@H]2CN(C3CCC3)C[C@H]2CO)n1` | -19.25% |
| `N#Cc1ccc(CCO)cc1` | 11.21% |
| `OCC(O)CNc1cc(C(F)(F)F)nc2ccccc12` (centres undefined) | 18.74% |
| `NC(=O)CCSCc1csc(-c2ccco2)n1` | 38.7% |
| `CNC(=O)C1CCCCN1Cc1cncn1C1CC1` (centres undefined) | 1.937% |
| `COCCN(CCOC)C(=O)c1cc(F)cc(F)c1` | 2.923% |
| `CC1=CC(=O)N(Cc2ccccc2)C1=O` | 112% |
| `NCc1ccn(-c2ccc(F)cc2)n1` | 28.37% |
| `CC(C)CC(C)N(C)CC(=O)NC(N)=O` (centres undefined) | -16.92% |
| `N#Cc1ccccc1NC(N)=O` | -0.9207% |
| `O=C(CCc1ccoc1)Nc1cnccn1` | -9.625% |
| `CS(=O)(=O)N1CCCCC1C(=O)N1CCOCC1` (centres undefined) | -20.31% |
| `Cc1ccccc1C1CNCCO1` (centres undefined) | 7.534% |
| `CCC[C@H]1CN(C(=O)c2scnc2C)C[C@@H]1N` | -8.652% |
| `O=C(CSc1cnn[nH]1)N1CCc2sccc2C1` | -3.368% |
| `c1ccc(-c2nnc(CC3CCNC3)[nH]2)cc1` (centres undefined) | -17.24% |
| `Cc1cc(C)c(O)c(C(=O)NCCCS(N)(=O)=O)c1` | 20.86% |
| `O=C(NCCn1cccc1)c1ccc(Cl)cn1` | 82.41% |
| `Cc1cc(C(=O)NC2CCC(=O)NC2)cc(Cl)c1Br` (centres undefined) | -11.67% |
| `Cc1ccc(NC(=O)C(C)N2CCCN(C)CC2)cc1` (centres undefined) | 5.871% |
| `CN(C)c1ncc(CNC(=O)C2CCC2)n1C` | -10.7% |
| `COC(=O)c1ccc(C(=O)Nc2ncccc2O)s1` | 26.7% |
| `CS(=O)(=O)CCC(=O)N1C[C@H](C2CC2)[C@@H](N)C1` | -1.987% |
| `CC(=O)Nc1cc(Br)cnc1NC(C)=O` | 10.11% |
| `Cc1cc(NC(=O)CN2CCOc3ccccc32)no1` | -12.35% |
| `Cc1cc(C)n(CCO)c(=O)n1` | 4.706% |
| `COCCNC(=O)CNS(=O)(=O)c1ccc(Br)c(C)c1` | 20.39% |
| `CN(CC1CCOCC1)C(=O)c1ccc(CN)cc1` | 14.41% |
| `Oc1ccc(Cl)cn1` | 5.043% |
| `N#Cc1ccc(C(=O)Nc2cncc(Br)c2O)nc1` | 11.17% |
| `CN1C(=O)c2cccn2CC1CN` (centres undefined) | -2.803% |
| `NC1CCOc2ccc(F)cc21` (centres undefined) | 8.636% |
| `CCS(=O)(=O)N(C)CCCNc1cc(C)ccn1` | 7.125% |
| `O=C(Cc1ccsc1)N1CCN(c2ncccn2)CC1` | -12.41% |
| `C1CC2CNCC1O2` | 4.631% |
| `Cc1cc(C)n(C(C)C(=O)NCCS(=O)(=O)N(C)C)n1` (centres undefined) | 4.141% |
| `CC(C)CNc1nc(N)c2cn[nH]c2n1` | 73.6% |
| `CN(Cc1cc(Br)cs1)C(=O)CC1(N)CCC1` | 34.46% |
| `O=S(=O)(CCN1CCCC(O)C1)c1ccc(Br)cc1` (centres undefined) | 94.29% |
| `CNC(=O)Cc1nc(-c2ccc3c(c2)COC3)cs1` | 12.23% |
| `Cn1ccc(NC(=O)CN2CCC[C@@H]2C(N)=O)n1` | 0.1837% |
| `CN(CCO)C[C@@H]1CN(C(=O)CC2CCC2)C[C@@H]1CO` | -19.11% |
| `O=C(NC1CC1)c1c(F)cc(F)cc1F` | 9.447% |
| `Cc1cnccc1NCCNC(=O)c1cccc(N)n1` | 12.69% |
| `CSCCCNC(=O)c1nn(C)c2c1CCCC2` | 30.87% |
| `COc1ccc(F)c(N2CCNCC2)c1` | 24.18% |
| `O=c1[nH]c2cc(Cl)ccc2c(=O)n1CC1CCCO1` (centres undefined) | 4.66% |
| `COc1ccnc(CSc2n[nH]c(=O)n2C)c1OC` | -12.28% |
| `COC(=O)c1cccc(F)c1` | 8.886% |
| `CC(N)C(=O)N(C)Cc1ccncc1` (centres undefined) | 6.776% |
| `NCC1(O)Cc2ccccc2C1` | -3.417% |

The first 8 entries again:

Compound,percent effect
Cn1cc(C(N)=O)c(C(F)F)n1,-4.397%
Cc1cc(C(=O)N2CCN(C)C(=O)C2(C)C)c(C)o1,-5.642%
CC(C)(CCS(C)(=O)=O)NC1CCCCC1,-2.261%
CCC[C@H]1CN(S(=O)(=O)c2cnn(CCC)c2)C[C@@H]1N,12.88%
Cc1c[nH]c(CN(C)Cc2ccncc2Cl)n1,-3.534%
CN1CCCN(C(=O)c2cc3ccccc3[nH]2)CC1,4.203%
C=C(C)CN1CCC(NC(=O)N2CCSCC2)CC1,60.92%
CC(C)(O)C1CCCN1C(=O)Nc1cccnn1 (centres undefined),-12.47%